{"source": "patent US20230392121A1", "about": "“HYDROGELS FOR CELL CULTURE” (KATHOLIEKE UNIVERSITEIT LEUVEN, priority 2020, published 2023)", "key": {"[1]": {"settings": "vs. placebo treated patients, phase III; cited from earlier work"}, "HepMat co-cultures": {"system": "HepMat co-cultures", "experiment": "Co-treatment of HepMat co-cultures with OA & OCA or OA & ELN", "assay_type": "cell-based, human", "settings": "3 days", "description": "A similar effect was observed on proinflammatory parameters.\nOleic acid (OA) exposure of HepMat-co-cultures and mono-cultures: Day 32 HepMat co-cultures and Day 32 HepMat HC3x HLC, HSC and Mφ mono-cultures were incubated with 800 μM of OA (Sigma-Aldrich) for 7 days (addition on day 0 and day 3). Day 32 HepMat co-cultures were also incubated with a combination 800 μM of OA and 1 μM Obeticholic acid (OCA) (Company) or 800 μM of OA and 30 μM Elafibranor (ELN) (Company) for 3 days (addition on day 0 only). Expression of inflammatory and fibrogenic genes was determined by RT-1PCR. Supernatants were collected for pro-collagen measurement by ELISA on day 3 and day 7. In addition, co-culture were assayed for presence of steatosis by BODIPY® staining on day 3 and day 7 as follows: Gels were transferred to Glass Bottom plates (cellvis) for live-cell imaging, following incubation with BODIPY® 493/503 for lipids (Thermo Fisher Scientific) and Hoechst (Sigma Aldrich). Sample was visualised and scanned on a laser scanning confocal microscope (LSM 880, Zeiss, Germany),\nThe supernatant was assayed for human TNF-alpha, ILla1pha, and IL6 by ELISA (Biolegend, CA, USA), according to the manufacturer's instructions. Presence of pro-collagen type I was detected by Pro-collagen Type I C-peptide ELISA kit (Takara Bio Inc). Secreted level of TNF-alpha, IL1alpha, IL6 and pro-collagen 1 were normalised for the cell number."}, "[2]": {"settings": "800 μM OA with 1 μM OCA or 30 μM ELN"}}, "note": "At least one structure is not confirmed: it was looked up by name or label, or the drawing left a doubt.", "data": [{"smiles": "CC[C@H]1[C@@H](O)[C@@H]2[C@H](CC[C@]3(C)[C@@H]([C@H](C)CCC(=O)O)CC[C@@H]23)[C@@]2(C)CC[C@@H](O)C[C@@H]12", "note": "[OCA, obeticholic acid]", "values": [{"measurement": "improvement in fibrosis, patients", "setting": "[1]", "value": 23, "unit": "%"}, {"measurement": "COL1A1 transcript levels", "setting": "HepMat co-cultures; [2]", "value": "robustly decreased"}, {"measurement": "IL6 transcripts", "setting": "HepMat co-cultures; [2]", "value": "significantly reduced"}, {"measurement": "bodipy staining", "setting": "HepMat co-cultures; [2]", "value": "significant reduction"}, {"measurement": "pro-collagen secretion in culture supernatants", "setting": "HepMat co-cultures; [2]", "value": "significant albeit not complete inhibition"}, {"measurement": "production of secreted IL6", "setting": "HepMat co-cultures; [2]", "value": "could inhibit"}, {"measurement": "COL3A1 transcript levels", "setting": "HepMat co-cultures; 800 μM OA with 1 μM OCA", "value": "robustly decreased"}]}]}
